The record followed here is paper PMC7085228.

The chains behind the UniProt entries cited, without tags or fusion partners. Residues count along the entry.
UniProt Q9QUK6, residues 26-835: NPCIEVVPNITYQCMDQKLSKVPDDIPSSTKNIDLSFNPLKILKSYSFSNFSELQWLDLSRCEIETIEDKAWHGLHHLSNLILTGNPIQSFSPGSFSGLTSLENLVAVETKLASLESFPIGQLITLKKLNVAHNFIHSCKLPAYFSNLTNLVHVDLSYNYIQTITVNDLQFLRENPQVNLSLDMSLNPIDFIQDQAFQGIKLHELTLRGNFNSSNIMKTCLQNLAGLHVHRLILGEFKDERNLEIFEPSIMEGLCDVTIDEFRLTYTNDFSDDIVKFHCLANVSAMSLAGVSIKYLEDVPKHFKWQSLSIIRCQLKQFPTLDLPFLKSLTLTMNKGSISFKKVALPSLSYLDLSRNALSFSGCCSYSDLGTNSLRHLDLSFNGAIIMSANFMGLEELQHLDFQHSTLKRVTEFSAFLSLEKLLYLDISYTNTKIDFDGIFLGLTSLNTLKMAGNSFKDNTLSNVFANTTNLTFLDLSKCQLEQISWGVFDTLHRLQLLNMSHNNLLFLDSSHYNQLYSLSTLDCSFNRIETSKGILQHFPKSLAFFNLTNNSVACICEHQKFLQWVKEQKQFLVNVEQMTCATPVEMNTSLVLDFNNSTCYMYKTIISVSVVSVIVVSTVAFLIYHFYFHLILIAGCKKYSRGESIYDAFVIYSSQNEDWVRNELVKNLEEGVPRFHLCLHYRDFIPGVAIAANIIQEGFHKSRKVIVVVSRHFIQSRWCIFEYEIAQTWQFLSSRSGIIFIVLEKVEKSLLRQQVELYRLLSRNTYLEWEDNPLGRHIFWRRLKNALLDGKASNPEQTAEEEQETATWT

Test [1] deals with Toll-like receptor 4 (mouse (endogenous in CT26.WT)) (UniProt Q9QUK6). The test can be described thus: co-IP; lysates of CT26.WT cells, LPS-stimulated (15 min), with or without 1 h pretreatment with L6H21 (5 or 10 uM) or MD2 neutralizing antibody (1 ug/mL); anti-TLR4 antibody at 4°C overnight, protein A+G agarose 4 h at 4°C; immunoblot for MD2.
Test [2] has the same target. The test can be described thus: co-IP; CT26.WT cells transfected with the MD2 overexpression plasmid, treated with L6H21 for 1 h and then LPS; shown in Supplementary Figure S4A-B; method taken from the paper's only co-immunoprecipitation protocol.

Results are given in words; binding and its absence hold for the method and conditions named. In cells and extracts the contact can be indirect. Some entries that bind do so weakly or less than the wild type.

B1: Myeloid differentiation protein 2 (protein, UniProt Q9JHF9 19-160)
chain: EKQQWFCNSSDAIISYSYCDHLKFPISISSEPCIRLRGTNGFVHVEFIPRGNLKYLYFNLFISVNSIELPKRKEVLCHGHDDDYSFCRALKGETVNTSIPFSFEGILFPKGHYRCVAEAIAGDTEEKLFCLNFTIIHRRDVN
For the molecule B1, the binding result in test [1] was “binds”.

B2: MD2 expressed from the recombinant plasmid vector MG51098-NH (protein, UniProt Q9JHF9 19-160)
chain: B1 chain
Take B2: in test [2], the binding entry was “binds”.
